Results taken from patent US20130267584A1.
These are yes or no findings as the source states them, for the method shown. Some entries that bind do so weakly or less than the wild type.

Amino acid sequences for entries named in this document (tags omitted). A change or cut given only in a name is not applied to a line headed by its entry. Residues count along the entry.
UniProt Q07954, residues 805-1184: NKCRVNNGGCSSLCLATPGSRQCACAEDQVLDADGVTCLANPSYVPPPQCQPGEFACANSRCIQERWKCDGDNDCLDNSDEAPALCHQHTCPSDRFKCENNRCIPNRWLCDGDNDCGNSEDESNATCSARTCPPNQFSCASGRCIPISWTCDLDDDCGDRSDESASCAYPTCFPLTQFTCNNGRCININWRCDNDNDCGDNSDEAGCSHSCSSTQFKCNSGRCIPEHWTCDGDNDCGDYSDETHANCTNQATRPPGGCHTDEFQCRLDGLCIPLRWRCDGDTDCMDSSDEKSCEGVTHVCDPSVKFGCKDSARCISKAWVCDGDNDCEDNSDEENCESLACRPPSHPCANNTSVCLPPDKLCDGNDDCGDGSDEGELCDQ
UniProt P10646, residues 29-304: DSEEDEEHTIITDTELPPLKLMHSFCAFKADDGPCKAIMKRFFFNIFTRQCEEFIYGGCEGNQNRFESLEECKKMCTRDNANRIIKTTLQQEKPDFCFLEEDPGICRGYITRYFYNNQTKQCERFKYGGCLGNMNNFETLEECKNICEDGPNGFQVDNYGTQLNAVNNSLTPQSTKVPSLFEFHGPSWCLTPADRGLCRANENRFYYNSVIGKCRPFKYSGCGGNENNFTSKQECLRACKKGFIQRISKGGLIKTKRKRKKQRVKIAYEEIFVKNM

Target: biotinylated recombinant human LRP-1 Cluster II Fc Chimera protein (R&D Systems) (human) (UniProt Q07954)
Experiment: SPR (BIAcore T200, 37 C), biotinylated LRP-1 Cluster II Fc on NeutrAvidin C1 chip, fl-TFPI 3.6-142.3 nM single cycle

Question: With “recombinant human fl-TFPI (Baxter Innovations GmbH) (from UniProt P10646 29-304)” as the substance, how does the binding read?
Answer: binds
